Drawing on PubChem BioAssay AID2685 (National Center for Advancing Translational Sciences (NCATS), 2010), this text covers cell number change and AC50 for 37 compounds.

The experiment is described as follows: qHTS Assay for Lipid Storage Modulators in Drosophila S3 Cells.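 As to cell number change: cells counted by Cell Tracker Red CMTPX staining in the red channel.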 The conditions noted are these: BODIPY lipid droplet fluorescence, 18-24 h; for cell number change: measured here: cell count max response, cells fed with added oleic acid. The method, boiled down: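 Laser-scanning cytometry quantifies lipid droplet accumulation (500–530 nm total intensity; droplet/cell object ratio) in oleic acid-fed (400 uM added) Drosophila S3 cells treated with a concentration series. 20 uM Triacsin C defined 100% inhibition.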

Setting [1] is: measured here: cell number channel AC50, cells fed with added oleic acid.
Setting [2] is: measured here: lipid fluorescence (Fed channel) AC50, cells fed with added oleic acid.

This is one part of the list. These are further read-outs of the screen, such as a control signal, another cell line or another target. No call is given for them. The list favours compounds with an active or inconclusive main result. Words in brackets tell the shape of the fitted curve; partial curves, single points and poor fits give uncertain potencies.

As for `Cc1ncsc1CCOC(=O)C1C2CC3CC(C2)CC1C3` (stereo unspecified), the cell number change was -43.3%. Besides, the AC50 (usually the concentration giving half of the maximal activity seen) under setting [1] is 29.1 µM [falling, single point]. Further, the AC50 under setting [2] was 29.1 µM [falling, single point]. `CCOC(=O)CC1(NC(=O)C2CCC(=O)N(Cc3ccccc3OC)C2)CCCCC1` (stereo unspecified): the cell number change was -14.7%. In addition, the AC50 under setting [2] was 6.51 µM [falling, single point]. Consider `O=C(CS(=O)CC(=O)NC12CC3CC(CC(C3)C1)C2)Nc1ccc(F)cc1` (stereo unspecified), for which the cell number change is 17.9%. In the case of `CCn1c(SCC(=O)Nc2cc(C)on2)nc2sc(C)c(C)c2c1=O`, the cell number change was 14.4%. Further, under setting [2], the AC50 was 0.58 µM [rising, full curve].

In the case of `Cc1ccc2nc(N(CCCN(C)C)C(=O)CS(=O)(=O)c3ccccc3)sc2c1`, the cell number change was -9.72%. Moreover, the AC50 under setting [1] was 1.3 µM [falling, full curve, poor fit]. Besides, the AC50 under setting [2] is 0.651 µM [falling, full curve, poor fit]. In the case of `Cc1ccc(S(=O)(=O)c2c(N)n(CC3CCOC3)c3nc4ccccc4nc23)cc1` (stereo unspecified), under setting [2], the AC50 is 0.259 µM [rising, partial curve, poor fit]. With `COc1ccc(C(=O)C23CC4CC(C2)CC(C(=O)c2ccc(OC)cc2)(C4)C3)cc1`, the cell number change was found to be 2.2%. Besides, under setting [2], the concentration at half-maximal activity (AC50) is 12.6 µM [rising, single point]. Turning to `Cc1ccc(C(=O)Oc2cc(C)n(C)c(=O)c2)cc1`, the cell number change amounted to 151%. Besides, under setting [2], the AC50 was 20.6 µM [rising, partial curve]. On to `Cc1c(C)n2c(SCC(=O)Nc3cccc4ccccc34)nnc2[nH]c1=O`, for which the cell number change was -52.6%. Under setting [1], the AC50 is 32.6 µM [falling, single point]. Regarding `COc1cc(/C=C2\SC(=S)N(CCC(=O)NCCc3ccccc3)C2=O)cc(OC)c1OC`, the AC50 under setting [2] was 6.51 µM [falling, single point].

`O=C(CSc1nc2ccccc2[nH]1)NCc1ccc(F)cc1`: the half-maximal activity concentration (AC50) under setting [2] is 0.58 µM [falling, single point]. Consider `COc1cccc(Oc2cn[nH]c2-c2ccc(OC)cc2O)c1`, for which the cell number change was -77.1%. The AC50 under setting [1] was 23.1 µM [falling, partial curve]. For the same compound, the AC50 under setting [2] is 32.6 µM [falling, partial curve]. As to `C=C1C(O)C[C@H]2C(=C)CCC3[C@H](OC(=O)[C@]3(O)CO)[C@@H]12` (stereo partly specified), the cell number change is 21.2%. The AC50 under setting [2] is 3.66 µM [falling, single point]. As to `O=C(O)c1ccccc1SC1CC(=O)N(c2cccc3ccccc23)C1=O` (stereo unspecified), the cell number change is -23.2%. Besides, under setting [2], the AC50 was 0.259 µM [falling, full curve, poor fit].

`COCc1cc(=O)[nH]c(/N=C(\N)Nc2ccc(C)cc2)n1`: the cell number change was determined as 6.27%. Also, the AC50 under setting [2] was 2.31 µM [rising, single point].

On to `C[C@@H](NC(=O)OC(C)(C)C)C(=O)NCC1CCC(C(=O)N[C@@H](Cc2ccccc2)C(=O)O)CC1` (stereo partly specified), for which the cell number change is -12.8%. In addition, the AC50 under setting [2] is 5.8 µM [rising, single point]. With `COc1ccc([C@H]2CC(=O)C=C(c3cc(F)ccc3OC)C2)cc1`, the cell number change was -0.963%. For the same compound, the AC50 under setting [2] is 6.51 µM [rising, partial curve, poor fit].

In the case of `O=C(Nc1cc(S(=O)(=O)N2CCCC2)ccc1OCC(F)(F)F)c1ccc(F)cc1`, the cell number change came out at 39.7%. For the same compound, under setting [1], the AC50 is 16.4 µM [rising, single point]. Moreover, the AC50 under setting [2] is 0.461 µM [rising, single point]. In the case of `COc1cc(OC)c2c(OC)cccc2n1`, the cell number change worked out at 8.76%. The AC50 under setting [2] was 18.4 µM [rising, single point].

Consider `O=C(Nc1ccnn1C1CCN(Cc2ccccc2)CC1)c1ccccc1Cl`, for which the cell number change is 16.7%. Besides, the AC50 under setting [2] was 0.164 µM [rising, partial curve, poor fit].

On to `COc1cc(C2NC(=O)NC(C)=C2C(=O)OC2CCCCC2)cc(Cl)c1O` (stereo unspecified), for which the cell number change was -36%. Besides, the AC50 under setting [1] is 32.6 µM [falling, single point]. Further, the AC50 under setting [2] is 0.58 µM [rising, single point].

On to `COc1ccc(CNc2nc3c(c(C(F)(F)F)n2)CCCCC3)cc1`, for which the cell number change is -51.5%. Further, the AC50 under setting [1] is 9.2 µM [falling, partial curve]. Further, under setting [2], the AC50 is 11.6 µM [falling, partial curve]. Take `O=C(c1ccc2c(=O)n(Cc3ccccc3)c(=S)[nH]c2c1)N1CCCC1`: the cell number change was determined as 4.84%. For the same compound, the AC50 under setting [2] was 10.3 µM [rising, partial curve, poor fit]. For the compound `Cc1nn(-c2ccccc2)c(Cl)c1/C=C1\C(=O)N(C)C(=S)N1C`, the AC50 under setting [1] was 0.146 µM [falling, full curve, poor fit]. `Cc1ccc(-c2cc(-c3ccccc3[N+](=O)[O-])[nH]n2)c(O)c1`: the cell number change was -43.6%. Besides, the AC50 under setting [1] is 29.1 µM [falling, single point]. Turning to `CC1CCN(C(=O)COC(=O)c2ccc(=O)n(Cc3ccccc3)n2)CC1`, the AC50 under setting [1] is 0.517 µM [falling, full curve].

Consider `CCS(=O)(=O)N1Cc2ccccc2CC1C(=O)NCC12CC3CC(CC(C3)C1)C2` (stereo unspecified), for which the cell number change is 2.71%. For the same compound, the half-maximal activity concentration (AC50) under setting [2] was 18.4 µM [falling, partial curve].

Take `CC(=O)c1c(C)[nH]c(C(=O)COC(=O)c2cccc(S(=O)(=O)N(C)c3ccccc3)c2)c1C`: the AC50 by setting is: under setting [1], 0.82 µM [rising, partial curve, poor fit]; under setting [2], 5.8 µM [falling, partial curve]. For the compound `CC(=O)c1cccc(NC(=O)C2CCN(S(=O)(=O)c3ccccc3)CC2)c1`, the cell number change stood at 15.9%.

Regarding `O=C(O)CCCC(=O)Nc1ccc2c(c1)oc1ccccc12`, the cell number change turned out to be 24.2%. In addition, under setting [2], the AC50 was 29.1 µM [rising, single point].

As for `CCOc1ccc(N2C(=O)CC(N3CCC(O)(c4ccc(Br)cc4)CC3)C2=O)cc1` (stereo unspecified), the cell number change stood at 4.69%. Besides, the concentration at half-maximal activity (AC50) under setting [1] is 4.61 µM [rising, single point]. Regarding `COc1ccc(CNC(=O)c2nn(C)c3c2CS(=O)(=O)c2ccccc2-3)cc1`, the cell number change amounted to 29%. Further, the AC50 under setting [2] was 10.3 µM [rising, partial curve]. As to `CSc1nc(C)c(CCOC(=O)c2cccc(C)c2)c(=O)[nH]1`, the cell number change amounted to 4.89%. For `Cc1cc2ncn(/N=C/c3cccnc3)c2cc1C`, the cell number change is -12.8%. Further, the AC50 under setting [2] was 29.1 µM [falling, single point]. Regarding `COc1ccccc1OCC(=O)NCCS(=O)(=O)N1CCN(c2ccc(F)cc2)CC1`, the cell number change was -7.25%.

For `C=CCn1c(Cc2c[nH]c3ccccc23)nnc1SCC(=O)NCc1ccccc1`, the cell number change was -39%. For the same compound, the AC50 under setting [1] is 14.6 µM [falling, single point]. Regarding `O=C(Nc1ccc(-c2n[nH]c(=S)o2)cc1)c1ccccc1Br`, the cell number change was -23.1%. For the same compound, the AC50 under setting [2] was 3.66 µM [rising, full curve, poor fit].
